Source: patent publication US9273364B2 (Kyoto University, priority 2010, dated 2016)

Tested on: alternative splicing of a specific gene (GFP/RFP reporter)
Experiment: Compound screen with GFP/RFP alternative splicing reporter
Format: cell-based
Text: Strategy of a method for testing whether or not a compound to be tested affects an alternative splicing of a specific gene in a mammalian multicelluar organism is shown in FIG. 14.
The reporter proteins used for the method are GFP and FRP.

Q: How did the “last column of Table 4 (head not shown in these continuation tables; table is sorted descending by it; probably the normalised GFP/RFP reporter ratio)” value turn out when `CCCN1CCC[C@@H]2Cc3n[nH]cc3C[C@H]21.Cl` [Quinpirole HCl (−)-] was run?
A: 0.8969
